What all share (experiment): protein microarray (ProtoArray v5.0), streptavidin-Alexa Fluor 647
What all share (conditions): 3'-biotin; 20 mM Tris (pH 7.5), 5 mM MgCl2, 100 mM KCl, 0.1% Tween-20, A/T-rich and random oligonucleotide blockers; temperature not stated; high values mean tight binding

Test [1] has as its system METTL2B (human).
Test [2] concerns METTL6 (human).
Test [3] relates to METTL8 (human).
The test system of test [4] is METTL9 (human).
Test [5] concerns MFGE8 (human).
Test [6] relates to MFN1 (human).
The subject of test [7] is MGAT4B (human).
The test system of test [8] is MGC10334 (human).
Test [9] concerns MGC10600 (human).
Test [10] deals with MGC10955 (human).

The list shows a part of the results.

Take “GGGAGGCTGAGGCAGG [G4-1 biotinylated (PQS2)]”: the binding signal is -0.335 z-score in test [1]; -0.295 z-score in [2]; -0.291 z-score in test [3]; -0.331 z-score in test [4]; -0.347 z-score in test [5]; -0.297 z-score in test [6]. The binding signal in test [7] was -0.333 z-score; in test [8], -0.328 z-score; in test [9], -0.33 z-score; in [10], -0.327 z-score.

For the origin of these results see paper PMC5996148.
